From US4048333A (priority 1971, dated 1977)
Read-outs that look alike come from different tables or passages of the source. At least one read-out could not be matched to a standard name with certainty.

Tested on: poliovirus 1
Assay type: cell-based, poliovirus 1 (FL cells)
Conditions: maximum subtoxic concentration, virus yield vs control

In the case of `O=C(O)CCCNC(=S)Nc1ccccc1` [Example 8, γ-phenylthioureidobutyric acid], the “Results from one-step virus growth cycle experiments, % of inhibition” value is reported as 98.75% and the “Results from one-step virus growth cycle experiments, % of inhibition” value (listed as μ-phenylthioureidobutyric acid) is reported as 95-99%.
